One molecule from doi:10.1101/382564 can be followed below.

Where two headings read alike, the source gives them in different places. No constants are given. Whether binding was seen depends on the method and setting. Binding seen in cells or lysates may run through a third protein. Some results given as binding are weak or reduced against the parent protein; the word gives no strength. Sequences can lack the tags named with a protein.

Common to all, as to experiment: co-IP
Assay [1] concerns the target T1, Pol1-Flag (S. pombe) (UniProt P28040).
T1 sequence: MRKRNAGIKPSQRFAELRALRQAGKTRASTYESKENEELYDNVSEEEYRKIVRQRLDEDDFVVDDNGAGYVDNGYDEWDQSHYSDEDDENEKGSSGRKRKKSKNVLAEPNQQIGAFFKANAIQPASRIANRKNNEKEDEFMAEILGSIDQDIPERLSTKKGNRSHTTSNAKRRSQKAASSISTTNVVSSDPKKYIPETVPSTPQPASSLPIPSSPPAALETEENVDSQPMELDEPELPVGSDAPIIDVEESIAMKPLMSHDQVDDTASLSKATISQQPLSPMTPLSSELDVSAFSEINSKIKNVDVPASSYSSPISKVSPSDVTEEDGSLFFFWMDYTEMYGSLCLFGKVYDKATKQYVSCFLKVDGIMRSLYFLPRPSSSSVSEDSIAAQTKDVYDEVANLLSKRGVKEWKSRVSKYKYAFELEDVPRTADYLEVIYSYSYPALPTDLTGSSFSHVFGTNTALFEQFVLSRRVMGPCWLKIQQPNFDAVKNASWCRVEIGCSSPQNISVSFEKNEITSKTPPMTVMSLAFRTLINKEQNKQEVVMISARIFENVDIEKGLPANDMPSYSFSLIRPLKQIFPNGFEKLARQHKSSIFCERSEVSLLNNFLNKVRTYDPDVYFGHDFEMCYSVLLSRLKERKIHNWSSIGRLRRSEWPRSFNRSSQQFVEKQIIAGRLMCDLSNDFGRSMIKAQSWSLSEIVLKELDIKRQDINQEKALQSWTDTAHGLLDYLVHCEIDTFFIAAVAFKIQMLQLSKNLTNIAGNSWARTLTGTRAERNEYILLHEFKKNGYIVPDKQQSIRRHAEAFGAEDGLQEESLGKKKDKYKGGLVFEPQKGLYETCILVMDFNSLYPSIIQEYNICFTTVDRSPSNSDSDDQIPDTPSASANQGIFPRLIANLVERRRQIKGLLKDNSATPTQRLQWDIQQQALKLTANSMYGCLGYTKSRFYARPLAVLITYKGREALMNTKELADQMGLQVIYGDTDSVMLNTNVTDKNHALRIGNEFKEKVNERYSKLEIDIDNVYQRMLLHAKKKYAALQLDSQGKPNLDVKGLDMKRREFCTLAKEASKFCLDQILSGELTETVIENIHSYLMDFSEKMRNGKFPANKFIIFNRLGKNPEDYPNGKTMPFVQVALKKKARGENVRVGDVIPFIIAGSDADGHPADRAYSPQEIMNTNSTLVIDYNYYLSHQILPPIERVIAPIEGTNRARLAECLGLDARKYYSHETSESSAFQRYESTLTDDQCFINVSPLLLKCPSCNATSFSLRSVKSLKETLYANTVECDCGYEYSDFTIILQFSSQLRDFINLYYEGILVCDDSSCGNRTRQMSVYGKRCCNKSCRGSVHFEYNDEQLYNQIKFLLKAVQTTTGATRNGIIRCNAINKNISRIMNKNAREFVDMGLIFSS

Assay [2] addresses T1, Pol1-Flag (S. pombe). The source holds these as a separate data set.
Assay [3] concerns the target T2, Ten1-Flag (S. pombe) (UniProt P0C5Y7).
T2 sequence: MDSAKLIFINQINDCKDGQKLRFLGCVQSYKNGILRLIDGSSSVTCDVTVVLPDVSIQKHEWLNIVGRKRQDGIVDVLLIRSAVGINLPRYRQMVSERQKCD

B1: Stn1-Myc (protein, UniProt Q0E7J7 1-325)
chain: MLENENQLTHQFPTLSRWNPMFISDVHKISFHPHLQRYIGFWMGFPIRWIQIVGYIAAIDIYEGKHVLTVDDCSGMVLRVVFIIQDDFSMSKRAISMSPGNVVCVFGKINSFRSEVELIAQSFEELRDPNDEWKAWQKRMRYKKNLTKISKNHHSIIRTPKKSYFPKDHAKELLKCIRQMCKLNVQAGFTIEELIIYLKAKELHLPLVHIFNVENEIVENCDGNHILALNFSLQTLLQHGRIVRKSNSVYMLVTSKDIIRFVIPLMASGLLEAHKVQSIVRDSNPMFITLPLSAIAKHICQFLLRTKGKWRQAKKYTWVRDNQFV
As to B1, the binding entry in assay [1] was “no binding (condition: in ssu72Δ cells)”; in assay [2], “binds”; in assay [3] it was “binds”.
